Laboratory results taken from patent US8324152B2, “Composition for the treatment of atherosclerosis” (Institute National de la Sante et de la Recherche Medicale …, priority 2005, dated 2012).

Assay: Total plasma cholesterol in apoE-/- mice after subcutaneous mini-osmotic pump delivery of peptide
Assay type: in vivo
[1] = Example 1, 10 μg per day s.c. mini-osmotic pump for 14 days, killed at 19 weeks of age
[2] = Example 2, 10 μg per day s.c. pump for 14 days, kept another 6 weeks, killed at 19 weeks of age
[3] = Example 2, s.c. pump for 14 days, kept another 10 weeks, killed at 23 weeks of age

| Substance | Total plasma cholesterol levels [1] [g/L] | Total plasma cholesterol levels [2] [g/L] | Total plasma cholesterol levels [3] [g/L] |
| --- | --- | --- | --- |
| KTTKQSFDLSVKAQYKKNKH (peptide derived from apolipoprotein B) [P210, Human apoB-100 derived peptide, amino acids 3136 to 3155] | 4.66 ± 0.45 | 4.94 ± 0.39 | 5.40 ± 0.67 |
| FPDLGQEVALNANTKNQKIR (peptide derived from apolipoprotein B) [P240, Human apoB-100 derived peptide, amino acids 3586 to 3605] | 4.95 ± 0.59 | 4.81 ± 0.51 | 6.64 ± 0.64 |
| MDA-P210: Malondialdehyde (MDA)-modified human apoB-100 derived peptide; native P210 modified by 0.5 mol/L MDA for 3 hours at 37° C. (KTTKQSFDLSVKAQYKKNKH) | 5.84 ± 0.61 | 5.49 ± 0.50 | 4.67 ± 0.89 |
| ISQAVHAAHAEINEAGR (peptide derived from ovalbumin) [Control: chicken ovalbumin (OVA) peptide, amino acids 323 to 339, reference compound] |  | 5.51 ± 0.78 |  |
